Data as given in PubChem BioAssay AID1259354 (Paczesny and Yang Labs, IUPUI and University of Michigan, 2018).
Hit rate of the full screen: of about 78,000 compounds, about 1,800 (2.3%) were called active. Inconclusive results, whose numbers are uncertain, are shown with a selection of clear calls. Rule as the data show it: active = inhibition above about 30%; inconclusive = mostly about 10% to 28%; inactive = weaker than that.

By UniProt entry, the sequences of proteins in these tests, tags left out. Where a name states a change or a piece, a line headed by the entry shows the natural chain unless it says otherwise.
UniProt Q01638: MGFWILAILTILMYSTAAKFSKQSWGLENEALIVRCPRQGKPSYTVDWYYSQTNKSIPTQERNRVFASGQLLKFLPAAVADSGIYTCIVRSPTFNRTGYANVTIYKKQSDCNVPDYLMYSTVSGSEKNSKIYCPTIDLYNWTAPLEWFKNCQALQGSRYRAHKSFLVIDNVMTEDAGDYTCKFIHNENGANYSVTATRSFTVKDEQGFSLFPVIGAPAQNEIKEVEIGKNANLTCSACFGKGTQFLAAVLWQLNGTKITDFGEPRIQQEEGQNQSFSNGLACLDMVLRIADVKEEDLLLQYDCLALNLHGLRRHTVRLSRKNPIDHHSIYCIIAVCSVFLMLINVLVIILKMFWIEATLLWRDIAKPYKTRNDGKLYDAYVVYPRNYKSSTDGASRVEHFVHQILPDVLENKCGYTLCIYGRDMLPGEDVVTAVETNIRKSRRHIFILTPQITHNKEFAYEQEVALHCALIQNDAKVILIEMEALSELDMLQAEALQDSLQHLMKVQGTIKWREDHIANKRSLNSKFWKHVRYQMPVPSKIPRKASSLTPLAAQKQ

The molecules below were run against Interleukin-1 receptor-like 1 (Homo sapiens) (UniProt Q01638) (assay: blocks human ST2 binding to IL-33, primary screen, biochemical, AlphaLISA (AID 1259354)). Conditions: AlphaLISA ST2-Fc/biotin-IL-33 interaction, 1 h; at 17 µM, stronger effect = higher value.

Structure (SMILES)	inhibition
CCCNC(=O)CSc1nc2nc(C)c(Cc3c(F)cccc3Cl)c(C)n2n1	inconclusive: 22%
O=C(CSc1ccccn1)c1ccc(Br)cc1	inconclusive: 12%
COc1cc(/C=C2\SC(c3ccc(C)cc3)=NC2=O)cc(OC)c1OC	inconclusive: 18%
CCCc1nc2c(sc3nc(C)cc(COC)c32)c2nc3ccccc3n12	inconclusive: 11%
O=C(Cn1cnc2c(oc3ccccc32)c1=O)NCc1ccccc1Cl	inconclusive: 17%
Cc1ccc(Cl)cc1N=Cc1nc(-c2ccccc2F)oc1O	inconclusive: 16%
O=C(c1ccccc1-c1ccccc1)N1CC(c2ccncc2)C1	inactive
O=C(CSc1nnc(COc2ccc3c(c2)CCCC3)o1)Nc1nc(-c2ccccc2)cs1	inactive
O=C(Cc1ccccc1)Nc1ccc(F)cc1	inconclusive: 15%
Cc1ccn2c(=O)cc(COc3cc(NC(=O)c4cccs4)ccc3C)nc2c1	inconclusive: 17%
COCCNC(=O)C[C@@H]1O[C@H](CNC(=O)NC(C)C)[C@@H](O)[C@H]1O	inconclusive: 21%
Cc1ccc(C(=O)Nc2c(C)n(C)n(-c3ccccc3)c2=O)cc1C	inactive
COc1cc(N2C(=O)C3C4C=CC(C4)C3C2=O)cc(OC)c1OC (stereo unspecified)	inconclusive: 19%
COc1ccc(OC)c(NC(=O)CN(c2ccccc2Cl)S(=O)(=O)c2ccc(C)cc2)c1	inconclusive: 10%
Cc1ccccc1C(=O)Nc1cccc(NC(=O)c2ccc(C)c([N+](=O)[O-])c2)c1	inconclusive: 14%
Cc1cc(NC(=O)CSc2nc3c([nH]c4ccccc43)c(=O)n2C)no1	inactive
COc1ccc(N2C(=O)CSC2c2ccc([N+](=O)[O-])cc2)c(OC)c1 (stereo unspecified)	inconclusive: 11%
CCn1c(C2CCNCC2)nn(Cc2ccc3c(c2)OCO3)c1=O	inactive
O=C(COc1ccccc1[N+](=O)[O-])Nc1ccc(N2CCCC2)cc1	inconclusive: 25%
C(=C\c1ccco1)/CN1CCC(CCn2cccn2)CC1	inconclusive: 11%
COC(=O)C1C(=O)C2=C(CC1C)NC(C)=C(C(=O)OC1CCCC1)C2c1ccc(O)c(OC)c1 (stereo unspecified)	inactive
COc1ccc(OCCCN2CCCCCC2)cc1	active: 43%
CC(C)C[C@@H](NC(=O)[C@@]1(O)C[C@@H](O)[C@H](O)[C@@H](NC(=O)c2ccco2)C1)C(N)=O	inconclusive: 17%

An excerpt taken from the entries so far:
Structure (SMILES)	inhibition
O=C(Cn1cnc2c(oc3ccccc32)c1=O)NCc1ccccc1Cl	inconclusive: 17%
Cc1ccc(Cl)cc1N=Cc1nc(-c2ccccc2F)oc1O	inconclusive: 16%
O=C(c1ccccc1-c1ccccc1)N1CC(c2ccncc2)C1	inactive

(further entries)

Structure (SMILES)	inhibition
C=CCn1c(O)c(C2=c3cc(Br)ccc3=NC2=O)c2ccccc21	active: 37%
Cc1ccccc1OCc1nnc(SC(C)C(=O)Nc2nccs2)n1Cc1ccccc1 (stereo unspecified)	inconclusive: 16%
O=[N+]([O-])c1cccc(-c2noc([C@@H]3Cc4nc[nH]c4CN3Cc3ccc(F)cc3)n2)c1	inconclusive: 20%
OCCC1CN(Cc2cn[nH]c2-c2cccc(F)c2)CCN1Cc1ccsc1 (stereo unspecified)	inactive
COC(=O)c1ccc2c(c1)C1C=CCC1C(c1ccc(F)cc1)N2 (stereo unspecified)	inconclusive: 24%
COc1cc(C(=O)N2CCC(O)(CN(C)C)C2)ccn1 (stereo unspecified)	inconclusive: 20%
CSC1=N/C(=C\c2cccc(Br)c2)C(=O)S1	inconclusive: 12%
COCCN1C(=O)C(=O)C(=C(O)c2ccc(C)cc2)C1c1ccc(F)cc1 (stereo unspecified)	inactive
COc1ccc(-c2nnc(Nc3ccccc3O)c3ccccc23)cc1	inactive
COc1ccc(CC(=O)N2CCc3ccccc3C2)cc1	inconclusive: 12%
CC1CCN(C(=O)CSc2nc(-c3ccco3)nc3c2c(=O)n(C)c(=O)n3C)CC1	inconclusive: 10%
O=C(c1ccc2c(c1)C(=O)N(CCO)C2=O)c1ccc2c(c1)C(=O)N(CCO)C2=O	inconclusive: 15%
Cn1cnc([N+](=O)[O-])c1Sc1nccc(Nc2ccccc2)c1C#N	inconclusive: 11%
Cc1cccn2c(=O)c3cc(C(=O)N(C)CCC#N)n(C)c3nc12	inconclusive: 13%
C=CCO[C@@H]1C[C@H]2C(=O)Nc3ccc(-c4ccsc4)cc3C(=O)N2C1	inconclusive: 13%
CC(O)C12c3ccccc3C(c3ccccc31)[C@H]1C(=O)N(c3ccc(F)cc3)C(=O)C12 (stereo partly specified)	inconclusive: 10%
CC(=O)n1c2ccccc2c2[nH]c3c(c21)CCCC3	inconclusive: 16%
CC(NC(=O)c1ccc2c(c1)OCCO2)c1nnc2n1CCNCC2 (stereo unspecified)	inconclusive: 16%
NC(=O)c1ccc(-n2cnnc2)cc1N1CCCC1	inconclusive: 10%
COc1ccc(CN(Cc2cccc(F)c2)C(=O)c2ccc3cccnc3n2)cc1	inconclusive: 19%
CCOC(=O)CSC1=Nc2ccccc2C2=NC(C(C)C)C(=O)N12 (stereo unspecified)	inconclusive: 12%
O=C1NN(c2ccccc2)C(=O)/C1=C/c1ccc(OCCOCCOc2ccccc2)cc1	inactive
CC1=C(C(N)=O)C(c2ccc(F)cc2)n2nc(SCc3ccccc3F)nc2N1 (stereo unspecified)	inactive
